# Values quoted from earlier work as cited in US12005072B2, “HIV drug combination for increasing barrier against resistance” (Merck Sharp & Dohme LLC, priority 2018, dated 2024).
# For at least one compound, name, drawing or mass did not settle the structure.
# System: F227C mutant
# Settings: cited from earlier work
smiles,measurement,value
"Cc1cn([C@H]2C[C@H](N=[N+]=[N-])[C@@H](CO)O2)c(=O)[nH]c1=O [AZT, azidothymidine]",fold more susceptible (mutant vs WT),approximately 10 fold
